This note sets out measurements from the supplement of paper PMC6411743.

Chains of the proteins cited; added tags and fusions are not shown. Lines headed by an entry give the natural chain unless they say otherwise; changes in a name come on top.
UniProt P04424, whole entry: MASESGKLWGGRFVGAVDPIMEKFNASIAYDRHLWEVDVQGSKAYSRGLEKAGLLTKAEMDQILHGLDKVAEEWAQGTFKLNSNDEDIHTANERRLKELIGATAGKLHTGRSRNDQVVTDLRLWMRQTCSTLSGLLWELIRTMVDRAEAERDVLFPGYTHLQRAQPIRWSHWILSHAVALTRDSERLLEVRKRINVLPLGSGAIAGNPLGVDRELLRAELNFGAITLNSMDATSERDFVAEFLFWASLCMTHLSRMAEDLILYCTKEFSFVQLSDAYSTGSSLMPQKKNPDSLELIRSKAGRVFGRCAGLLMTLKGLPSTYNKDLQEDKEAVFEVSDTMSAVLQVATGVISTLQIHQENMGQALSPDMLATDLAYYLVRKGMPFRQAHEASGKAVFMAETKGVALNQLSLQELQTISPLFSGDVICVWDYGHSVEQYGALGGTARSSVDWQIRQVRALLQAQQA
UniProt P12081: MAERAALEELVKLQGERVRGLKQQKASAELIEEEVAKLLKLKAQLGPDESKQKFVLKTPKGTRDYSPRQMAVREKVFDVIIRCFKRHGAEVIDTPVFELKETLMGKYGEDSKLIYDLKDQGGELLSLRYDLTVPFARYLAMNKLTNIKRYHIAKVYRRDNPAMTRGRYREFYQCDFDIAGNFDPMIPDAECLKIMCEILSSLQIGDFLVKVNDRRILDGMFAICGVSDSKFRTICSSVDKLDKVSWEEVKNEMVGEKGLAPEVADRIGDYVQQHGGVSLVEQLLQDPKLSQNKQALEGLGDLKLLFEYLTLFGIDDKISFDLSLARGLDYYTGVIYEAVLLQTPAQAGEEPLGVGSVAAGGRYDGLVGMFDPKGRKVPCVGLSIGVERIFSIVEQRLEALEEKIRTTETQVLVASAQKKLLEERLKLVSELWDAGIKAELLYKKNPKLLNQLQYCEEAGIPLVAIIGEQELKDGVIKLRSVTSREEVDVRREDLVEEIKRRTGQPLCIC
UniProt P14625, whole entry: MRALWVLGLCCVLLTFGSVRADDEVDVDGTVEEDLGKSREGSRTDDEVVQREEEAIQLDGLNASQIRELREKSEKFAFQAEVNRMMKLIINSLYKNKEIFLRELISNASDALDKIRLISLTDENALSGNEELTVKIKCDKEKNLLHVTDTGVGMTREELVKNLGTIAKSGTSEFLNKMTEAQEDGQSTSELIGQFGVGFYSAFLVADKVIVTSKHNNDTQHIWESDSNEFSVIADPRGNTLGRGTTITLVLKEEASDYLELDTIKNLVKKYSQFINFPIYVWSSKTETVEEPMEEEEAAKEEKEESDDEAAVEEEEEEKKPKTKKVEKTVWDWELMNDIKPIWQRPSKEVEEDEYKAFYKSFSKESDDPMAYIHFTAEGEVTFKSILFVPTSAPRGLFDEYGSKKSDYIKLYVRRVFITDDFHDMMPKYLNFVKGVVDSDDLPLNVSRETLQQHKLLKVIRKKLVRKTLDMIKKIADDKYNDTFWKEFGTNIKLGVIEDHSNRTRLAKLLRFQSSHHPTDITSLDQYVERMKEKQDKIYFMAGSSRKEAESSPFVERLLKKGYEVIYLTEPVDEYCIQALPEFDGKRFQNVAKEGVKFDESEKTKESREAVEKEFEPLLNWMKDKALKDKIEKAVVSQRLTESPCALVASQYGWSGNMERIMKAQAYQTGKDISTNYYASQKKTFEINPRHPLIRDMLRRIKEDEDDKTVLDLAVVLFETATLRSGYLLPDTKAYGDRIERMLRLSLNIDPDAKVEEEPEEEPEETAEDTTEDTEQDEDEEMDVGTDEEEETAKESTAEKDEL
UniProt P12277: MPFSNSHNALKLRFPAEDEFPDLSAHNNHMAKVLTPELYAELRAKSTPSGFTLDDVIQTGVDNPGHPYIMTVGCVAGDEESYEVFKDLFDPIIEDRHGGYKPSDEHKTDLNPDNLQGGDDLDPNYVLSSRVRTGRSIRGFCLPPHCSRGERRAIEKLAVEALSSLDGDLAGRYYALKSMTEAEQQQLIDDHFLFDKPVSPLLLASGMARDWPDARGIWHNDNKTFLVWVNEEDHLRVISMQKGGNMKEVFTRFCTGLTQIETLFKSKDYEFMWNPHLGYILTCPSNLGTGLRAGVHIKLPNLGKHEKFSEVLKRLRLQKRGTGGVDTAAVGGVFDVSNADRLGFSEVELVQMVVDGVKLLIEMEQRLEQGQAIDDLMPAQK
UniProt P04183: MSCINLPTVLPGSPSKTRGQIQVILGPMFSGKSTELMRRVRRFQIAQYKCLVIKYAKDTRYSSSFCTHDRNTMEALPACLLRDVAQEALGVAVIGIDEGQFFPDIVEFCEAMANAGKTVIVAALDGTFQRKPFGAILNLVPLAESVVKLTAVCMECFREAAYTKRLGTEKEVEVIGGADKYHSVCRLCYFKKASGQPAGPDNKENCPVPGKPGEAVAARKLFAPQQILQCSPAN
UniProt P01737: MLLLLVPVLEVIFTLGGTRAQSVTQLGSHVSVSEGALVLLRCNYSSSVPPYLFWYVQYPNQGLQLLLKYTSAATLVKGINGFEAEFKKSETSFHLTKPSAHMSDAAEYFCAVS
UniProt P00387: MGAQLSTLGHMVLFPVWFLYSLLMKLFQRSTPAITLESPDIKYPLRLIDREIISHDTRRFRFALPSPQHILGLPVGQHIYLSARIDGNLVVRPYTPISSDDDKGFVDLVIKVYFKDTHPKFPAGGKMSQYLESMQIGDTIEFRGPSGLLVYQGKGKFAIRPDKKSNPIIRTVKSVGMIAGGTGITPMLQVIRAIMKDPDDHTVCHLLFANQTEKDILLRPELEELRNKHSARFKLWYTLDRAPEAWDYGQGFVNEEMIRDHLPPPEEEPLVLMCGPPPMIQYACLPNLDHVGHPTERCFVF
UniProt P10619: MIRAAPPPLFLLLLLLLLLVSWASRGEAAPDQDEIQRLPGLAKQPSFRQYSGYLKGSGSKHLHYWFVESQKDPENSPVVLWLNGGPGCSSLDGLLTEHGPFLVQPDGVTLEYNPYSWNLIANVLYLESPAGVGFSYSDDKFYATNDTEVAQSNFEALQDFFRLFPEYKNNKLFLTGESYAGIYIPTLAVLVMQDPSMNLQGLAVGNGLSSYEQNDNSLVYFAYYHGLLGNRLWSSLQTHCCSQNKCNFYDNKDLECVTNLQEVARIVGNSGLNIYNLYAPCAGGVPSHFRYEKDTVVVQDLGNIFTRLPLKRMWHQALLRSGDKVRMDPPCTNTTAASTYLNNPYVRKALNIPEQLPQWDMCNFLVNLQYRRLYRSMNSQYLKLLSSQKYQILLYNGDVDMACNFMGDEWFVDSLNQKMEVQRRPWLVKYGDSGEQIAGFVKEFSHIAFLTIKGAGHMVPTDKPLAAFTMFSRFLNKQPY
UniProt O96008: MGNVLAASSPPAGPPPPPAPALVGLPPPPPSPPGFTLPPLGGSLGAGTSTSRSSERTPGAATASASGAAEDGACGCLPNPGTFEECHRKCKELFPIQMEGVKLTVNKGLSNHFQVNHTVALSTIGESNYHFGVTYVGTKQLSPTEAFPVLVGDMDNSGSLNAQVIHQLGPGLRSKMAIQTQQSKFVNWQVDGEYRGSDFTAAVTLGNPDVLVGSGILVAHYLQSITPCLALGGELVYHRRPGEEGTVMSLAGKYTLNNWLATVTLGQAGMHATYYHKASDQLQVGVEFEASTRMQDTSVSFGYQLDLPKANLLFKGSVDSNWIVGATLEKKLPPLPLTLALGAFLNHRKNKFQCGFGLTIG
UniProt O95865: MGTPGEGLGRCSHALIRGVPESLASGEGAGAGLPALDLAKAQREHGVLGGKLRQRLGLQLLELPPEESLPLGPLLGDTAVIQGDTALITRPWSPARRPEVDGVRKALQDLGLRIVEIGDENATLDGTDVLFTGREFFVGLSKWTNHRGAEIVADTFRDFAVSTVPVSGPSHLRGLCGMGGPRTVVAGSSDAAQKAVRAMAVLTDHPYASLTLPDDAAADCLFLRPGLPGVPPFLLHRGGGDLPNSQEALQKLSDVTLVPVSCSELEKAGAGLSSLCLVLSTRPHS
UniProt O95793: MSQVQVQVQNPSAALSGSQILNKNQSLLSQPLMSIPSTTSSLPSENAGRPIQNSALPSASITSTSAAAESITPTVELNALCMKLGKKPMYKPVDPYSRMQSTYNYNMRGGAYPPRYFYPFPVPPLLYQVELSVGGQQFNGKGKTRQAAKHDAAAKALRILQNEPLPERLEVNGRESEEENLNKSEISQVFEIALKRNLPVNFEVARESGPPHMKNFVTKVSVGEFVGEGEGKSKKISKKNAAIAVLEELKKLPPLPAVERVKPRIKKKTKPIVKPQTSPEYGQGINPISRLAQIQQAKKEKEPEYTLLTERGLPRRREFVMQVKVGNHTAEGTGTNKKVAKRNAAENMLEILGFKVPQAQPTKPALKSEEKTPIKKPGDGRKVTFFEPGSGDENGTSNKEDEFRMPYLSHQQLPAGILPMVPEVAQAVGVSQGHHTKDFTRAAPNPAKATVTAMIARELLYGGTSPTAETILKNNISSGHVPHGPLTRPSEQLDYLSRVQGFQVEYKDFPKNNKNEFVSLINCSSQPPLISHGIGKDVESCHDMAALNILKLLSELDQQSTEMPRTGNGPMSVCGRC
UniProt P16278: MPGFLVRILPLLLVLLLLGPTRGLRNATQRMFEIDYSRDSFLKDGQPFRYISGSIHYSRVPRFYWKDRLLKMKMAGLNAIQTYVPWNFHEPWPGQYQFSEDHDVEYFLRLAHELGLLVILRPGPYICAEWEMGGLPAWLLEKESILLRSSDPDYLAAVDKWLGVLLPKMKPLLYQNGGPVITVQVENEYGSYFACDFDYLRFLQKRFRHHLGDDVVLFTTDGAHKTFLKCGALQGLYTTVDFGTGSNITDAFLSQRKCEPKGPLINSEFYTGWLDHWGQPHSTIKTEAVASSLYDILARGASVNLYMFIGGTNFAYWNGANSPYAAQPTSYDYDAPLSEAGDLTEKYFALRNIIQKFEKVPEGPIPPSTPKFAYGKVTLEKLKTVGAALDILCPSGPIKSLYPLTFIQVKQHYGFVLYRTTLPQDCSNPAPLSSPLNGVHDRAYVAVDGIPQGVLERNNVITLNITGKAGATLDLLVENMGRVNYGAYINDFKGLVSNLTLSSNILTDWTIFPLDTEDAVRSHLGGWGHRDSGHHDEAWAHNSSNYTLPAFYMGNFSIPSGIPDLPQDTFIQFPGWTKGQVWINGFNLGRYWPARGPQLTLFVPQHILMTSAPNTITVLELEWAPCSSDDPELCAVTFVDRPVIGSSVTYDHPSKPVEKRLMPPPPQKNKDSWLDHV
UniProt P16220: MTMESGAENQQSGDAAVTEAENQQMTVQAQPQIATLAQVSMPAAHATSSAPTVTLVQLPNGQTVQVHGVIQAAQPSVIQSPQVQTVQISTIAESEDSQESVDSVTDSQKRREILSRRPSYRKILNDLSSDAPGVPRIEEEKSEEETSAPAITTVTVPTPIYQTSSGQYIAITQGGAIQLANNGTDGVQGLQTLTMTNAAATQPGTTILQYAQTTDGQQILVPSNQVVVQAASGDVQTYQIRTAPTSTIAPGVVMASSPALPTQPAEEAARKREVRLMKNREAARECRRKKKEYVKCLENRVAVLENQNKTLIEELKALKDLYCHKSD
UniProt P08648, whole entry: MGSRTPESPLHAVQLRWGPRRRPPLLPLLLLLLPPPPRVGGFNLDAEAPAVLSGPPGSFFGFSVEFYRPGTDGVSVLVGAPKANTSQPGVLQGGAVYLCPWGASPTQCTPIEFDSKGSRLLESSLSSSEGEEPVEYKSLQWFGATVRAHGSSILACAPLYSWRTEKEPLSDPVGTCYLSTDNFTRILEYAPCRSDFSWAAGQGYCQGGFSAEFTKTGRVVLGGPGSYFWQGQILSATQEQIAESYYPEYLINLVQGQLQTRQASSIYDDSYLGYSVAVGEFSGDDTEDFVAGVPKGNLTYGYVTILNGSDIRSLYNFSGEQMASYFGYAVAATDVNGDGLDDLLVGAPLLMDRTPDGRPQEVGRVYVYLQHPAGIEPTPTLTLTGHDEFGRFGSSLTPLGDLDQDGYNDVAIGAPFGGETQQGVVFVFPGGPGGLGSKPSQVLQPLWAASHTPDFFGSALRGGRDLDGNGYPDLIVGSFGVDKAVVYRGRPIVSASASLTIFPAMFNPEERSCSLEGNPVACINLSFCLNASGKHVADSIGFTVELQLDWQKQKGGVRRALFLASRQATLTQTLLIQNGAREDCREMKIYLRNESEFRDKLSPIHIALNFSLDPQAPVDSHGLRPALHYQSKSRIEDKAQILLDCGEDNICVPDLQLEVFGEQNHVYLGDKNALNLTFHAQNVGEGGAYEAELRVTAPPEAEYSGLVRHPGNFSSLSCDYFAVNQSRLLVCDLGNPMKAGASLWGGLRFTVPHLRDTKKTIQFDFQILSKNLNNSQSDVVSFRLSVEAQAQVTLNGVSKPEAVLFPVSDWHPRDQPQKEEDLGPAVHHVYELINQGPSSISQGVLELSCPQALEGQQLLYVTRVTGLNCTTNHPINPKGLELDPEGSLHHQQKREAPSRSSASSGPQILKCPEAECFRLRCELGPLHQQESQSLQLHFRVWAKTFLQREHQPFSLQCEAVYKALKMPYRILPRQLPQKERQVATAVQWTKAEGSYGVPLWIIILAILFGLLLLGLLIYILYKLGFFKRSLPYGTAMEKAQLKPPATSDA

± gives the standard deviation of the averaged measurements. Only a part is listed here, and it is no random draw.

Compound in the assay: Nc1ncnc2c1ncn2[C@@H]1O[C@H](COP(=O)(O)OP(=O)(O)NP(=O)(O)O)[C@@H](O)[C@H]1O [adenylyl imidodiphosphate]
As to the kind of experiment: NP40-soluble protein abundance relative to vehicle (solubility fold change) (ratio); higher = more soluble protein in presence of AMP-PNP. An outline of the steps: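 Data come from three independent experiments in which Dounce-homogenised Jurkat crude lysate was treated at eight concentrations from 0.1 to 10 mM. Treatment ran 10 min at room temperature and then 3 min at 37 °C, after which 0.8% NP40 and benzonase were added for 60 min at 4 °C before ultracentrifugation. The supernatant underwent TMT labelling and LC-MS/MS, and vsn-normalised intensities were expressed as fold change against the detergent-processed vehicle in each replicate.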

On to UniProt P04424 and related entries, for which the NP40-soluble protein abundance reads like this: (concentration: 1mM) 1.01 ± 0.033; (concentration: 2mM) 1 ± 0.028; (concentration: 4mM) 1.02 ± 0.047; (concentration: 6mM) 0.98 ± 0.025; (concentration: 8mM) 0.978 ± 0.025; (concentration: 10mM) 0.992 ± 0.024.
In the case of UniProt P14735 and related entries, the NP40-soluble protein abundance was determined as 0.996 ± 0.017 (concentration: 1mM); 0.924 ± 0.12 (concentration: 2mM); 0.973 ± 0.044 (concentration: 4mM); 0.966 ± 0.015 (concentration: 6mM); 0.976 ± 0.019 (concentration: 8mM); 0.936 ± 0.025 (concentration: 10mM).
Consider HARS (UniProt P12081), for which the NP40-soluble protein abundance is, setting by setting: (concentration: 1mM) 0.974 ± 0.014; (concentration: 2mM) 0.935 ± 0.042; (concentration: 4mM) 0.9579 ± 0.0065; (concentration: 6mM) 0.999 ± 0.041; (concentration: 8mM) 0.979 ± 0.029; (concentration: 10mM) 0.979 ± 0.039.
Turning to UniProt P09564, the NP40-soluble protein abundance amounted to 1.08 ± 0.07 (concentration: 1mM); 1.1 ± 0.074 (concentration: 2mM); 1.1 ± 0.091 (concentration: 4mM); 1.05 ± 0.04 (concentration: 6mM); 1.07 ± 0.076 (concentration: 8mM); 1.06 ± 0.071 (concentration: 10mM).
Turning to HSP90B1 (UniProt P14625), the NP40-soluble protein abundance (concentration: 1mM) was 0.996 ± 0.015; the NP40-soluble protein abundance (concentration: 2mM) came to 0.9973 ± 0.0081; the NP40-soluble protein abundance (concentration: 4mM) amounted to 0.976 ± 0.015; the NP40-soluble protein abundance (concentration: 6mM) turned out to be 1.04 ± 0.019; the NP40-soluble protein abundance (concentration: 8mM) amounted to 0.997 ± 0.02; the NP40-soluble protein abundance (concentration: 10mM) came out at 1.028 ± 0.009.
Regarding OAT (UniProt P04181), the NP40-soluble protein abundance (concentration: 1mM) was 1 ± 0.061; the NP40-soluble protein abundance (concentration: 2mM) worked out at 0.963 ± 0.038; the NP40-soluble protein abundance (concentration: 4mM) turned out to be 0.992 ± 0.066; the NP40-soluble protein abundance (concentration: 6mM) was found to be 1.03 ± 0.043; the NP40-soluble protein abundance (concentration: 8mM) was determined as 1.02 ± 0.064; the NP40-soluble protein abundance (concentration: 10mM) was found to be 1.04 ± 0.036.
For the target CKB (UniProt P12277), the NP40-soluble protein abundance was found to be 0.981 ± 0.023 (concentration: 1mM); 0.993 ± 0.034 (concentration: 2mM); 1.01 ± 0.031 (concentration: 4mM); 1.05 ± 0.025 (concentration: 6mM); 1.03 ± 0.045 (concentration: 8mM); 1.03 ± 0.077 (concentration: 10mM).
Take ENO2 (UniProt P09104): the NP40-soluble protein abundance stood at 1.01 ± 0.012 (concentration: 1mM); 0.997 ± 0.015 (concentration: 2mM); 0.9698 ± 0.0082 (concentration: 4mM); 0.986 ± 0.023 (concentration: 6mM); 0.99 ± 0.038 (concentration: 8mM); 0.946 ± 0.046 (concentration: 10mM).
For the target UniProt P08651 and related entries, the NP40-soluble protein abundance runs as follows: (concentration: 1mM) 1.06 ± 0.022; (concentration: 2mM) 1.04 ± 0.053; (concentration: 4mM) 1.04 ± 0.046; (concentration: 6mM) 1.033 ± 0.0072; (concentration: 8mM) 1.04 ± 0.018; (concentration: 10mM) 1.07 ± 0.02.
For the target UniProt P04183 and related entries, the NP40-soluble protein abundance by setting is: (concentration: 1mM) 1 ± 0.048; (concentration: 2mM) 1.07 ± 0.11; (concentration: 4mM) 1.04 ± 0.053; (concentration: 6mM) 1.02 ± 0.037; (concentration: 8mM) 1.02 ± 0.033; (concentration: 10mM) 1.02 ± 0.038.
Turning to UniProt O95980, the NP40-soluble protein abundance is, setting by setting: (concentration: 1mM) 0.995 ± 0.016; (concentration: 2mM) 1.02 ± 0.0047; (concentration: 4mM) 1.01 ± 0.014; (concentration: 6mM) 0.977 ± 0.013; (concentration: 8mM) 0.973 ± 0.023; (concentration: 10mM) 1.02 ± 0.024.
Turning to UniProt P01737, the NP40-soluble protein abundance is 1.03 ± 0.026 (concentration: 1mM); 1.11 ± 0.16 (concentration: 2mM); 1.06 ± 0.083 (concentration: 4mM); 1.08 ± 0.085 (concentration: 6mM); 1.11 ± 0.039 (concentration: 8mM); 1.16 ± 0.091 (concentration: 10mM).
In the case of GTF2F2 (UniProt P13984), the NP40-soluble protein abundance by setting is: (concentration: 1mM) 1 ± 0.011; (concentration: 2mM) 1.06 ± 0.023; (concentration: 4mM) 1.04 ± 0.019; (concentration: 6mM) 1.07 ± 0.018; (concentration: 8mM) 1.07 ± 0.015; (concentration: 10mM) 1.103 ± 0.0083.
As for UniProt P14324 and related entries, the NP40-soluble protein abundance runs as follows: (concentration: 1mM) 0.968 ± 0.027; (concentration: 2mM) 0.895 ± 0.038; (concentration: 4mM) 0.907 ± 0.033; (concentration: 6mM) 0.978 ± 0.053; (concentration: 8mM) 0.992 ± 0.035; (concentration: 10mM) 0.937 ± 0.036.
For UniProt P16435 and related entries, the NP40-soluble protein abundance by setting is: (concentration: 1mM) 1.02 ± 0.019; (concentration: 2mM) 0.977 ± 0.068; (concentration: 4mM) 1.01 ± 0.028; (concentration: 6mM) 0.9816 ± 0.0051; (concentration: 8mM) 1.002 ± 0.005; (concentration: 10mM) 0.984 ± 0.022.
As to UniProt P00387 and related entries, the NP40-soluble protein abundance reads like this: (concentration: 1mM) 0.941 ± 0.044; (concentration: 2mM) 0.867 ± 0.081; (concentration: 4mM) 0.966 ± 0.047; (concentration: 6mM) 0.992 ± 0.089; (concentration: 8mM) 1.05 ± 0.05; (concentration: 10mM) 0.983 ± 0.054.
As for UniProt P10619 and related entries, the NP40-soluble protein abundance (concentration: 1mM) came to 0.979 ± 0.018; the NP40-soluble protein abundance (concentration: 2mM) came out at 0.987 ± 0.086; the NP40-soluble protein abundance (concentration: 4mM) came out at 0.984 ± 0.044; the NP40-soluble protein abundance (concentration: 6mM) worked out at 1.05 ± 0.11; the NP40-soluble protein abundance (concentration: 8mM) amounted to 1.06 ± 0.083; the NP40-soluble protein abundance (concentration: 10mM) was determined as 1.07 ± 0.13.
With TOMM40 (UniProt O96008), the NP40-soluble protein abundance (concentration: 1mM) stood at 0.99 ± 0.023; the NP40-soluble protein abundance (concentration: 2mM) came to 0.976 ± 0.016; the NP40-soluble protein abundance (concentration: 4mM) stood at 0.984 ± 0.027; the NP40-soluble protein abundance (concentration: 6mM) is 1.04 ± 0.07; the NP40-soluble protein abundance (concentration: 8mM) came out at 1.06 ± 0.021; the NP40-soluble protein abundance (concentration: 10mM) was determined as 1.042 ± 0.0058.
In the case of DDAH2 (UniProt O95865), the NP40-soluble protein abundance runs as follows: (concentration: 1mM) 1 ± 0.045; (concentration: 2mM) 0.995 ± 0.033; (concentration: 4mM) 0.995 ± 0.064; (concentration: 6mM) 1.02 ± 0.057; (concentration: 8mM) 1.04 ± 0.063; (concentration: 10mM) 0.997 ± 0.066.
UniProt O95793 and related entries: the NP40-soluble protein abundance was 1.04 ± 0.0038 (concentration: 1mM); 1.05 ± 0.043 (concentration: 2mM); 1.09 ± 0.029 (concentration: 4mM); 1.143 ± 0.0097 (concentration: 6mM); 1.19 ± 0.021 (concentration: 8mM); 1.28 ± 0.038 (concentration: 10mM).
As for GNAI2 (UniProt P04899), the NP40-soluble protein abundance came to 0.972 ± 0.02 (concentration: 1mM); 0.906 ± 0.11 (concentration: 2mM); 0.935 ± 0.035 (concentration: 4mM); 0.97 ± 0.038 (concentration: 6mM); 0.998 ± 0.057 (concentration: 8mM); 0.923 ± 0.034 (concentration: 10mM).
Take UniProt P16278 and related entries: the NP40-soluble protein abundance turned out to be 1 ± 0.026 (concentration: 1mM); 1.02 ± 0.06 (concentration: 2mM); 1.03 ± 0.05 (concentration: 4mM); 1.02 ± 0.043 (concentration: 6mM); 1.01 ± 0.048 (concentration: 8mM); 1.06 ± 0.054 (concentration: 10mM).
CREB1 (UniProt P16220): the NP40-soluble protein abundance (concentration: 1mM) came to 1.04 ± 0.051; the NP40-soluble protein abundance (concentration: 2mM) came to 1.07 ± 0.015; the NP40-soluble protein abundance (concentration: 4mM) was found to be 1 ± 0.052; the NP40-soluble protein abundance (concentration: 6mM) came to 1.02 ± 0.019; the NP40-soluble protein abundance (concentration: 8mM) worked out at 1 ± 0.031; the NP40-soluble protein abundance (concentration: 10mM) was determined as 1.03 ± 0.032.
As to UniProt O95983 and related entries, the NP40-soluble protein abundance (concentration: 1mM) came out at 0.99 ± 0.042; the NP40-soluble protein abundance (concentration: 2mM) worked out at 1.01 ± 0.041; the NP40-soluble protein abundance (concentration: 4mM) came to 0.979 ± 0.026; the NP40-soluble protein abundance (concentration: 6mM) turned out to be 0.936 ± 0.054; the NP40-soluble protein abundance (concentration: 8mM) was found to be 0.967 ± 0.059; the NP40-soluble protein abundance (concentration: 10mM) is 0.918 ± 0.069.
Consider ITGA5 (UniProt P08648), for which the NP40-soluble protein abundance (concentration: 1mM) turned out to be 1.02 ± 0.015; the NP40-soluble protein abundance (concentration: 2mM) is 1.06 ± 0.089; the NP40-soluble protein abundance (concentration: 4mM) was found to be 1.06 ± 0.028; the NP40-soluble protein abundance (concentration: 6mM) was determined as 0.989 ± 0.056; the NP40-soluble protein abundance (concentration: 8mM) was 1.02 ± 0.025; the NP40-soluble protein abundance (concentration: 10mM) is 1.01 ± 0.043.
